Assay results from patent US20220135701A1 (Genentech, published 2022).
Numbering of substitutions follows the chain as printed. No constants are given. Whether binding was seen depends on the method and setting. Some results given as binding are weak or reduced against the parent protein; the word gives no strength.

T1: human MerTK (human, UniProt Q12866 26-499)
T1 construct: also called HuMER
T1 sequence: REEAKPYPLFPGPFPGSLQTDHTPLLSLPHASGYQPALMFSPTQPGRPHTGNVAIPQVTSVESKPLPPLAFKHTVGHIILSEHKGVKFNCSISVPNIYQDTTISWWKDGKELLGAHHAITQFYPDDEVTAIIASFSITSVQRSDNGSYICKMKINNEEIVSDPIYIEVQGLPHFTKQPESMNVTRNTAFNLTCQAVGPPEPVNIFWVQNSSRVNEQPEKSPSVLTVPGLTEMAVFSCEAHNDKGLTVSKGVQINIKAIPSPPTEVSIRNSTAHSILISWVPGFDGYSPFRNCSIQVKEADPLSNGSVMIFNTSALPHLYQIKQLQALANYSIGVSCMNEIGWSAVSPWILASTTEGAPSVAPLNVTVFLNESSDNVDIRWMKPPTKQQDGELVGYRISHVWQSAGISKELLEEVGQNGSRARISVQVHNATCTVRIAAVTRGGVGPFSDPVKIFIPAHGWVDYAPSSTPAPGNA

T2: mouse MerTK (mouse, UniProt Q60805 23-496)
T2 construct: also called MuMER
T2 sequence (looked up): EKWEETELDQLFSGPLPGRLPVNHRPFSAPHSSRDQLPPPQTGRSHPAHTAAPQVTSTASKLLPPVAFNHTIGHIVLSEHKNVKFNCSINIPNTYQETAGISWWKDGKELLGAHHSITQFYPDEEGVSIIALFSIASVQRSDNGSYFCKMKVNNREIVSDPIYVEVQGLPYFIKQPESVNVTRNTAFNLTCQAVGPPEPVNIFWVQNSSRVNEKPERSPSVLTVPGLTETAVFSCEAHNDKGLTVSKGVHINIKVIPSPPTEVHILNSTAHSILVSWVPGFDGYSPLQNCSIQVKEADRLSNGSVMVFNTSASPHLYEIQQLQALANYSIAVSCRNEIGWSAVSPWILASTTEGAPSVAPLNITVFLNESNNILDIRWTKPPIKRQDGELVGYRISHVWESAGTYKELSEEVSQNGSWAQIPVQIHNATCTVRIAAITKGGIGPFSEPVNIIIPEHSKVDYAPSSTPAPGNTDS

T3: rat MerTK (rat, UniProt P57097 23-496, limits assumed)
T3 construct: Soluble analyte in SPR
T3 sequence (looked up): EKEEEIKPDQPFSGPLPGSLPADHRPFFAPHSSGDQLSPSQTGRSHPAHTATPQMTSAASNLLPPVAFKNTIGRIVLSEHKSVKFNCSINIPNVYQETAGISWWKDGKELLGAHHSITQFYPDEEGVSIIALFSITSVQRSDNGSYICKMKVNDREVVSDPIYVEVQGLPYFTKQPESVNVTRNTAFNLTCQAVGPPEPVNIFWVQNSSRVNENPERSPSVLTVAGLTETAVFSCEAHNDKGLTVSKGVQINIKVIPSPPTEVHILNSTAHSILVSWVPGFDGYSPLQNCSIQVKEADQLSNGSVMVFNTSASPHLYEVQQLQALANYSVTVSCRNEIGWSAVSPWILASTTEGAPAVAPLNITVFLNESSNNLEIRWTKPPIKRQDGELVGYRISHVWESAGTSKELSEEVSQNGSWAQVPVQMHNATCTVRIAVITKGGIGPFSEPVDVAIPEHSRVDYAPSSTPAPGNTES

B1: h10C3.v1 (antibody, V domains shown)
VH: EQQLVESGGGLVQPGGSLRLSCAASGFSLSGYTMGWVRQAPGKGLEYIGVISSGGTTYYTNWAKGRFTISKDSSKNTVYLQMGSLRAEDMAVYFCARVAFTAYGGGGFPTLHRLDLWGQGTLVTVSS
VL: DQVLTQSPDSLAVSLGERATINCQSSESVYNNDYLAWYQQKPGQPPKLLIYSASTLASGVPDRFSGSGSGTDFTLTISSLQAEDVAVYYCAGGYLGNNVFGGGTKVEIK
notes: also called h10C3.V1 (Parent); 10C3 Humanized mAb V1
B2: h10C3.v14 (antibody, V domains shown)
VH: B1 VH with Q2V, S73N, V78L, F94Y
VL: B1 VL
notes: Humanized, human IgG1; also called 10C3 Humanized polished mAb
B3: h10F7.v1 (antibody, V domains shown)
VH: EQQLVESGGGLVQPGGSLRLSCAVSGFSLSGYAMSWVRQAPGKGLEYIGVISSSGSSYYPSWAKGRFTISKDSSKNTVYLQMGSLRAEDMAVYFCARVQFYVGYAVYGYGIIDRLDLWGQGTLVTVSS
VL: DAVLTQSPDSLAVSLGERATINCQSSKSVYNNNWLSWYQQKPGQPPKLLIYRASTLESGVPDRFSGSGSGTDFTLTISSLQAEDVAVYFCAGGYSSSSSANAFGGGTKVEIK
notes: also called h10F7.V1 (Parent); 10F7 Humanized mAb V1
B4: h10F7.v16 (antibody, V domains shown)
VH: B3 VH with Q2V, S73N, V78L, F94Y
VL: B3 VL with A2I
notes: Humanized, human IgG1; also called 10F7 Fully Humanized; 10F7 Humanized polished mAb
B5: h13B4.v1 (antibody, V domains shown)
VH: EQQLVESGEGLVQPGGSLRLSCAVSGFSLSSYAMGWVRQAPGKGLEWIGIINSYGNTYYANWAKGRFTISRDSSKNTVYLQMGSLRAEDMAVYFCARDPGVSSNLWGPGTLVTVSS
VL: DVQMTQSPSTLSASVGDRVTITCQASQNIYSGLAWYQQKPGKPPKLLIYGASKLASGVPSRFSGSGSGTEFTLTISSLQPDDFATYYCQATYYSSNSVAFGGGTKVEIK
notes: also called h13B4.V1 (Parent); 13B4 Humanized mAb V1
B6: Rbt13B4 (antibody, V domains shown)
VH: QSVEESGGRLVTPGTPLTLTCTVSGFSLSSYAMGWVRQAPGKGLEWIGIINSYGNTYYANWAKGRFTISRTSTTVDLRMPSLTTEDTATYFCARDPGVSSNLWGPGTLVTVSS
VL: DVVMTQTPASVSEPVGGTVTIKCQASQNIYSGLAWYQQKPGQPPKLLIYGASKLASGVSSRFKGSGSGTEFTLTISDLECADAATYYCQATYYSSNSVAFGGGTEVVVK
notes: Recombinant rabbit monoclonal antibody, Expi293, protein A purified; also called Rb13B4
B7: Rbt14C9 (antibody, V domains shown)
VH: QSVEESGGRLVTPGTPLTLTCTVSGIDLSANTMNWVRQAPGKGLEWIGIFTATGSTYYATWVNGRFTISKTSTTVDLKITSPTTEDTATYFCARSGSGSSSGAFNIWGPGTLVTVSL
VL: DPVLTQTPASVSEPVGGTVTIKCQASQSISSSLAWYQQKPGQPPKLLIYAASILASEISSRFKGSRSGTEFTLTISDLECADAATYYCQCTSYGSLFLGPFGGGTEVVVK
notes: Recombinant rabbit monoclonal antibody, Expi293, protein A purified
B8: Rbt10F7 (antibody, V domains shown)
VH: QSVEESGGRLVTPGTPLTLTCTVSGFSLSGYAMSWVRQAPGKGLEYIGVISSSGSSYYPSWAKGRFTISKTSTTVDLQITSPTTEDTATYFCARVQFYVGYAVYGYGIIDRLDLWGQGTLVTVSS
VL: AAVLTQTPSPVSATMGGTVSISCQSSKSVYNNNWLSWYQQKPGQPPKLLIYRASTLESGVPSRFKGSGSGTQFTLTISDVHCDDAATYFCAGGYSSSSSANAFGGGTEVVVK
notes: as for B7
B9: Rbt12H4 (antibody, V domains shown)
VH: QSVEESGGRLVTPGTPLTVTCTVSGFSLSVYGMGWVRQAPGKGLEYIGFINNVGNTYYASWAKGRFTISKTSTTVDLKITSPTTEDTATYFCAKGGGGDWGYFNIWGPGTLVTVSL
VL: DVVMTQTPASVEAAVGGTVTIKCQASQSIGNALAWYQQKPGQRPKLLIYAASNLASGVPSRFAGSGSGTQFTLTISDLECADAATYYCQTYYAINRYGGAFGGGTEVVVK
notes: as for B7
B10: Rbt22C4 (antibody, V domains shown)
VH: QSVEESGGRLVTPGTPLTLTCTVSGFSLSTYSMSWVRQAPGKGLEWLGIVSVAIDPVYATWARGRFTISRTSTTVNLKITSPTTEDTATYFCVRVAFSTNGIPHRLDLWGQGTLVTVSS
VL: AQVLTQTASSVSAAVGGTVTISCQSSPSVYNHNWLSWYQQKPGQPPKLLIYEASKLASGVPSRFSGSGSGTQFTLTISDVQCDEAATYYCAGGFSSGSDSFAFGGGTEVVVT
notes: as for B7
B11: Rbt10C3 (antibody, V domains shown)
VH: QSLEESGGRLVTPGTPLTLTCTASGFSLSGYTMGWVRQAPGKGLEYIGVISSGGTTYYTNWAKGRFTISKTSTTVDLKITSPTTEDTATYFCARVAFTAYGGGGFPTLHRLDLWGQGTLVTVSS
VL: AQVLIQTASSVSAAVGGTVTISCQSSESVYNNDYLAWYQQKPGQPPKLLIYSASTLASGVPSRFKGSGSGTQFTLTISDLECDDAATYYCAGGYLGNNVFGGGTEVVVK
notes: as for B7
B12: Rbt13D8 (antibody, V domains shown)
VH: QSLEESGGRLVTPGTPLTLTCTVSGFSFSSYSMGWVRQAPGKGPEYIGVISASGTTYYASWVNGRFTISKTSTTMDLKMTSPTAADTATYFCARAAFTAYNRGSCVIHRLDLWGQGTLVTVSS
VL: AQVLTQTASSVSAAVGGTVTINCQASQSVYDSKWLAWYQQKPGQPPKLLIYSASTLASGVPSRFKGSGSGTQFTLTISDLECDDAATYYCAGAYTDNIVFGGGTEVVVK
notes: as for B7
B13: Rbt18G7 (antibody, V domains shown)
VH: QSLEESGGRLVTPGTPLTLTCTVSGIDLSSYALGWVRQAPGKGLEYIGIISSTGTTYYATWAKGRFTISKTSSTTVDLKITGPTTEDTATYFCARGAYAGYVAFGPYYFHIWGPGTLVTISL
VL: DIVMTQTPASVEAAVGGTVTIKCQASQSISNFLAWYQQKPGQPPKVLIYAASHLASGVPSRFKGSGSGTQFTLTISDLECADAATYYCQSYFYSSTSIYNAFGGGTEVVVR
notes: as for B7
B14: Rbt11G11 (antibody, V domains shown)
VH: QELVESGGGLVQAGESLKLSCKASGIDFSSYGISWVRQAPGKGLEWIAYIYPGFGITNYAHSVKGRFTISSDNAQNTVFLQMPSLTASDTATYFCARDLDYTGGVVGYAYVTYYFTLWGPGTLVTVSS
VL: DPVLTQTPSSVEAAVGGTVTIKCQASESISSRLAWYQQKPGQPPKLLIYSASTLASGVSSRFKGSGSGTEFTLTISDLECADAATYYCQTYYGGSTTGWYVFGGGTEVVVK
notes: as for B7
B15: Rbt8F4 (antibody, V domains shown)
VH: QSVQESGGRLVTPGTPLTLTCTVSGFSLINYPMSWVRQAPGKGLEWIGVISSTGGTNYASWAKGRFTISKTSTTVDLKITSPTTEDTATYFCARVDFLVYLGGAYIIWGLDLWGQGTLVTVSS
VL: AAVLTQTPSPVSAAVGGTVTINCQSSPNIYSNYLSWFQQKPGQPPKILIYGASTLASGVPSRFKGSGSGTQFTLTISDVQCDDAATYYCAGGYSDSSEAYAFGGGTEVVVK
notes: as for B7
B16: Rbt9E3.FN (antibody, V domains shown)
VH: QSVEESGGRLVTPGTPLTLTCTVSGFSLSSNAMSWVRQAPGKGLEWIGIISSSGSTYSASWAKGRFTISKTSTTMDLKITSPTTEDTATYFCARVGFFVGYGAYDYGIIHRLDLWGQGTLVTVSS
VL: AAVLTQTPSPVSAAVGGTVSISCQSSKSIYNNNWLSWYQQKPGQPPKLLIYDASDLASGVPSRFEGSGSGTEFTLTISDLECDDAATYYCAGGYSGDSDYAFGGGTEVVVK
notes: as for B7

Target: cynomolgus monkey MerTK (cynomolgus monkey)
Assay: SPR BIAcore T200

binding	Binder
binds	B1
binds	B2
binds	B3
binds	B4

Target: T1, human MerTK
Assay: SPR BIAcore T200

binding	Binder
binds	B1
binds	B2
binds	B5
binds	B6
binds	B3
binds	B4

Target: T2, mouse MerTK
Assay: SPR BIAcore T200

binding	Binder
binds	B7
binds	B1
binds	B2
binds	B3
binds	B4

Target: T3, rat MerTK
Assay: SPR BIAcore T200

binding	Binder
binds	B1
binds	B2
binds	B3
binds	B4

Target: T1, human MerTK
Assay: epitope binning and domain binding SPR

binding	Binder
binds	B8
binds	B9
binds	B10
binds	B11
binds	B12
binds	B6
binds	B13
binds	B14
binds	B15
binds	B16
